Assay results taken from publication doi:10.1101/2021.12.06.470909.
These are yes or no findings as the source states them, for the method shown. In cells and extracts the contact can be indirect. These calls come from enrichment with a bait or labelling near it, and not all partners need be listed. Sequences can lack the tags named with a protein.

Sequences of proteins named here, by UniProt entry; tags and fusion partners are left off.
UniProt O13731: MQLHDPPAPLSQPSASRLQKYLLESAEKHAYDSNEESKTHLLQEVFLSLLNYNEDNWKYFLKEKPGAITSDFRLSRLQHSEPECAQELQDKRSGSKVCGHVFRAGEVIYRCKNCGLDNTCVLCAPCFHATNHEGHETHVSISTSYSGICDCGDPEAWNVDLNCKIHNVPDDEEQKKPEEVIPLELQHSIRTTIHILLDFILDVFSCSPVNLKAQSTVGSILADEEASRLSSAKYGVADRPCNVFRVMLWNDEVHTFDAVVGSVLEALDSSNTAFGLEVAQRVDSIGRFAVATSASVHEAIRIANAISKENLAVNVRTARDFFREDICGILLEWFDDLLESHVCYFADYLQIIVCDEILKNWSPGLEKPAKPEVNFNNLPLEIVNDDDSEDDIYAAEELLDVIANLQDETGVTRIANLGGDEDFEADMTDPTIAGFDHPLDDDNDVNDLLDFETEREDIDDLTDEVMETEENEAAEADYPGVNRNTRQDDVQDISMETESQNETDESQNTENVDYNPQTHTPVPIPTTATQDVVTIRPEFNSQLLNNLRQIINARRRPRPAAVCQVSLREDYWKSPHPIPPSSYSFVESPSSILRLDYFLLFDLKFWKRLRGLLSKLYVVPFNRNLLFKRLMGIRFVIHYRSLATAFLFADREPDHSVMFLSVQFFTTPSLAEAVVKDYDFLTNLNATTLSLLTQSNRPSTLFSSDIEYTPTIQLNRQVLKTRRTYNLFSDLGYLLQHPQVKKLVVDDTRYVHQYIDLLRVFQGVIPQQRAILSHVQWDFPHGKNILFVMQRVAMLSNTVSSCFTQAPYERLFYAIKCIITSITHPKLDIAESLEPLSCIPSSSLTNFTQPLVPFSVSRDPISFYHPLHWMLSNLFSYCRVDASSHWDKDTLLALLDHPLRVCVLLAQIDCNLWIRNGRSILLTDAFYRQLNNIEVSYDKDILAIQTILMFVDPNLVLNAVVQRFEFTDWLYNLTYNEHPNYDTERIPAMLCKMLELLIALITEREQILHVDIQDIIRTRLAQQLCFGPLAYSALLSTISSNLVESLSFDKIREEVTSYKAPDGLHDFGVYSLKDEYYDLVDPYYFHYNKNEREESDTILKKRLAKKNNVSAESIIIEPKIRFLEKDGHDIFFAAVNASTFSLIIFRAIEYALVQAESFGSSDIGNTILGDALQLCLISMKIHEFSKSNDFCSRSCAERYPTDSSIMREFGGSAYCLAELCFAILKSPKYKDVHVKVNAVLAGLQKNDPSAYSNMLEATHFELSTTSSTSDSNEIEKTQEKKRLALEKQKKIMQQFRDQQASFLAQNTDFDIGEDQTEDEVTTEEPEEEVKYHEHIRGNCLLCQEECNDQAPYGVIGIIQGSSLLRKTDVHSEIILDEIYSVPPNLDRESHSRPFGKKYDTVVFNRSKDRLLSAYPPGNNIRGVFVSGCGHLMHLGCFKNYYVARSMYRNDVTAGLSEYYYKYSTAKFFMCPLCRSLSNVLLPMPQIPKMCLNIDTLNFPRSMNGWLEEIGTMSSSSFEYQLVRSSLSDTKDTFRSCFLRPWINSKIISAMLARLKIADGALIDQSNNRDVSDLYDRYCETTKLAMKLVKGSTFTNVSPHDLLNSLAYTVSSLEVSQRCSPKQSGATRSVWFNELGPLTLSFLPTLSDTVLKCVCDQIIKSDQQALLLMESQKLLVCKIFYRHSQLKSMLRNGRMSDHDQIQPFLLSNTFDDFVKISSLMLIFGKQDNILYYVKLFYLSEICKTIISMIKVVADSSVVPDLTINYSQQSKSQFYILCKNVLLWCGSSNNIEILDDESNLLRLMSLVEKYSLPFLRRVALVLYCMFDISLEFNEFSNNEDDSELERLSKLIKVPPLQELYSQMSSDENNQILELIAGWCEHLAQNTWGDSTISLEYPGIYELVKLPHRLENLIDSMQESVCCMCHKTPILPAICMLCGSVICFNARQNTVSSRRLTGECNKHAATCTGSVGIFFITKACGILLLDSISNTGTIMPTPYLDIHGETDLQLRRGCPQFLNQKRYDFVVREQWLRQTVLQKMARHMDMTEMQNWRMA

T1: Cts1-flag-3HA (S. pombe CTP synthase tagged with flag and 3HA) (S. pombe) (UniProt O42644)
T1 sequence: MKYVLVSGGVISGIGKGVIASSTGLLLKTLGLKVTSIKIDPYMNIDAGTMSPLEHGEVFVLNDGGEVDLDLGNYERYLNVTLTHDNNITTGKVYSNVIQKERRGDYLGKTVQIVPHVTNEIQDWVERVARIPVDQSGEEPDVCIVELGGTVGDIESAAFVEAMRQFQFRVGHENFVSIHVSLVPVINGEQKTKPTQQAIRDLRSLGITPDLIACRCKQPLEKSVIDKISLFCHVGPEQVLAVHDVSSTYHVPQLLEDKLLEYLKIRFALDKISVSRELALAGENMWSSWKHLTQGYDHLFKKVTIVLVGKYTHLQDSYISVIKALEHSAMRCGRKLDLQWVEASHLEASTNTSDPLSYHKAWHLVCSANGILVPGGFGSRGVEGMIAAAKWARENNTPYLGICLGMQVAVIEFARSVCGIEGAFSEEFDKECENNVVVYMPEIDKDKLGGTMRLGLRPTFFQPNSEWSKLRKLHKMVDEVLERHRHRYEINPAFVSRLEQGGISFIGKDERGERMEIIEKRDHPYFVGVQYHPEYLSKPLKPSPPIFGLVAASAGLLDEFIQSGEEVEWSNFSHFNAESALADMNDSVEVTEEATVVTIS


Target: T1, Cts1-flag-3HA (S. pombe CTP synthase tagged with flag and 3HA) (S. pombe)
Experiment: affinity purification with mass spectrometry

| binding | Molecule |
| --- | --- |
| binds | Ubr11 ubiquitin ligase (from UniProt O13731 1-2052) (enzyme) |
| binds | Mug30 ubiquitin ligase (enzyme, UniProt O94275 1-807) MSRPIEIANVSSGNRRTLPALHGSSFSSRSELDNNTNSKISRRLRELVCQRMGENPLRLRQSFHETISNDSYGNSEKLVIRPCICCNSVLRYPAQAMCFRCSLCMTVNDVYFCLSGSQIKTKASTDGSQFISVEHFVETIHQTRSALQLAKQRTGNVQAIVAAGLPLRELISLVFGSPPILNKLFSVKNGCSIQSSGLNYKLIYQLYHDITNLDILITNELLRAIESLLRRPMLYCHDPADYQYLLILLENPLLNSKSKNIVNKSSSILKRILGVLSNLNEKTHHFFISCFKKQPYNNPKFFRRKVDLINKFIGQRLMETYSRNKRKHYYNNDWQIKSAAITMALLYSANSQMRLIDRSSFYCIMADFINLYHDFELWEQKINCFCFCQYPFLLSMGAKISILQLDARRKMEIKAREAFFSSILSKMNVEPYLMIRVRRDRLLEDSLRQINDRNKDFRKALKVEFLGEEGIDAGGLKREWLLLLTRKVFSPEFGLFVNCEESSNYLWFNYSHRSKEIDYYHMSGILMGIAIHNSINLDVQMPRAFYKKLLQLPLSFNDLDDFQPSLYRGLKELLLFEGDVKNTYGLNFTINLKAVEGFRTVELKEGGSELSVDNENRKEYVLRYVDYLLNTTVKKQFSAFFDGFMKVCGGNAISLFQDNEISKLIRGSEEVIDWELLKNVCVYDFYDQNAISNSISESEPSMTASKYLCHSFVSKRKIILWFWDLISHYSLKMQKLFLIFVTGSDRIPATGAHNFQLRISVLGPDSDQLPISHTCFNHLCIWEYSSREKLKKKLDTALLETNGFNIR |
